These results are taken from PMC8505418.

The target of the series is GST-Ku70 WT (human) (UniProt P12956). The experiment in a line: EMSA. To be noted: 1 mM Mg2+, poly[d-(I-C)] competitor; 40 ug GST-fusion protein, 0.8 ng probe, 25 uL; 10 mM Tris-HCl pH 7.5, 50 mM NaCl, 1 mM MgCl2, 0.5 mM DTT, 4% glycerol, 1 ug poly[d-(I-C)], 0.1 ug poly-L-lysine; recombinant protein; residues 2-609; protein details: N-terminal GST (pGEX-6P-1); label: digoxigenin (DIG Gel Shift Kit). On the technique in general: Mobility shift assays separate free from complexed probe on a gel.

For at least one entry, the source does not settle the construct or the ends of the probe. At least one verdict was read from the data and is not stated in words by the source.

Regarding “TAGAGACGGGGTTTCACCGTGTTACCAGG / GATCTAACACACGGTGAAACCCCGTCTCTATGC [DIG-labeled DSB probe]”, the binding result was “binds”.
